Measured values taken from publication PMC6459899, “Pleiotropic Clostridioides difficile Cyclophilin PpiB Controls Cysteine-Tolerance, Toxin Production, the Central Metabolism and Multiple Stress Responses” (Frontiers in Pharmacology, 2019).

target: N-terminally StrepII-tagged PpiB of C. difficile (CdPpiB) (C. difficile str. 630Δerm); test: affinity purification with mass spectrometry; in vivo cross-linking with 0.125 % formaldehyde (30 min, 37°C) in C. difficile 630ΔermΔppiB + PpiB-NStrep; StrepII-PpiB and cross-linked partners purified on Strep-Tactin; decrosslinking at 95°C, SDS-PAGE, seven bands cut out, LC-MS; hits with at least 15% coverage and two or more unique peptides; ribosomal proteins discarded

Row | Binder | binding
1 | PduL, phosphate propanoyltransferase (enzyme, UniProt Q187N2 1-209) MENLLNEIVEEVITRVKKEAFIEVEASGRHVHLSREDVDKLFGEGYTLTKLKDLSQPGQYACKERVTITGPKGSIKNVVVLGPCRNETQVEISLTDGSTLGLKAPIKQSGDLEGTLSIKISTQYGEVELDKGLMVAKRHIHMTPKDAEKFNVCDKEIVEAKVMGQRPLTFDDVVIRVSDSFKTYMHIDYDEANACGYSKGTVAKIIKKA | binds
2 | LdhA, D-lactate dehydrogenase (enzyme, UniProt Q5U922 1-332) MKILVFGARDYEEPVIKKWSEEHKDVQVDIYPENMTEENVVKAKGYDGISIQQTNYIDNPYIYETLKDAGVKVIASRTAGVDMIHFDLVNENGLIVTNVPSYSPNAIAELAVTQAMNLLRKTPLVKKKVCEGDYRWIAELLGTEVRSITVGVIGTGKIGATSAKLFKGLGANVIAFDQYPNSDLNDILTYKDSLEDLLKEADLITLHTPLLEGTKHMINKDTLAIMKDGAYIVNTGRGGLINTGDLIEALESGKIRAAALDTFETEGLFLNKKMNPGELTDPEINKLLSMEQVIFTHHLGFFTSTAIENIVYSSLSSAVEVIKTGTATNRVN | binds
3 | HadA, isocaprenoyl-CoA:2-hydroxyisocaproate CoA-transferase (enzyme, UniProt Q5U921 1-399) MLLEGVKVVELSSFIAAPCCAKMLGDWGAEVIKIEPIEGDGIRVMGGTFKSPASDDENPMFELENGNKKGVSINVKSKEGVEILHKLLSEADIFVTNVRVQALEKMGIAYDQIKDKYPGLIFSQILGYGEKGPLKDKPGFDYTAYFARGGVSQSVMEKGTSPANTAAGFGDHYAGLALAAGSLAALHKKAQTGKGERVTVSLFHTAIYGMGTMITTAQYGNEMPLSRENPNSPLMTTYKCKDGRWIQLALIQYNKWLGKFCKVINREYILEDDRYNNIDSMVNHVEDLVKIVGEAMLEKTLDEWSALLEEADLPFEKIQSCEDLLDDEQAWANDFLFKKTYDSGNTGVLVNTPVMFRNEGIKEYTPAPKVGQHTVEVLKSLGYDEEKINNFKDSKVVRY | binds

No constants are given. Whether binding was seen depends on the method and setting. Binding seen in cells or lysates may run through a third protein. Here binding means that the protein was enriched with, or labelled near, the bait; the list need not be complete.
